# No constants are given. Whether binding was seen depends on the method and setting. Binding seen in cells or lysates may run through a third protein. A result given as binding can be weak or reduced; the word gives no strength.
# Molecular target: CaErg11^(Y132L F145L)-MYC (C. albicans) (UniProt P10613)
# Test: co-IP; whole cell lysates of Scarv1 cells co-expressing Arv1-HA and Erg11-MYC; 1 mg protein, anti-HA (16B12) or anti-MYC (9E10) 4 hr at 4°C, Protein A agarose; washes with 10 mM HEPES pH 7.5, 200 mM NaCl, 5 mM EDTA, 0.1% Nonidet P-40; western
row,Substance,binding
1,CaArv1^C3A-HA (from UniProt Q5ANH2 1-296),binds
2,CaArv1^C28A-HA (from UniProt Q5ANH2 1-296),no binding
3,CaArv1^Y38A-HA (from UniProt Q5ANH2 1-296),binds

# Reference: PMC7367482, “An Erg11 lanosterol 14-α-demethylase-Arv1 complex is required for Candida albicans virulence” (PLoS ONE, 2020)
